The results in this text go back to paper PMC6804044, “Design, Synthesis and Biological Evaluation of Pentacyclic Triterpene Derivatives: Optimization of Anti-ABL Kinase Activity” (Molecules, 2019).

What all share (assay type): cell-based
For one experiment, the system named is HL-60. The experiment is described as follows: MTT cell viability assay, HL-60. As to conditions: Homo sapiens, 24 h exposure. How it is done:
(§1) A549 human lung carcinoma and HeLa human cervical carcinoma cell lines were cultured in Dulbecco’s Modified Eagle Medium (DMEM). MCF7 human breast cancer and leukemic (K562, HL-60, MT-2 and Jurkat) cells, and PBMC (Precision Bioservices, Frederic, MD, USA) were cultured in RPMI 1640. All media were purchased from FUJIFILM Wako (Osaka, Japan) and supplemented with 10% fetal bovine serum (FBS) (Sigma-Aldrich, St. Louis, MO, USA) and 89 μg/mL streptomycin (Meiji Seika Pharma, Tokyo, Japan) at 37 °C in a humid atmosphere and 5% CO2. In experiments, all cancer cell lines and PBMC were cultured in 24-well and 96-well plates (Iwaki brand Asahi Glass, Chiba, Japan) at 2 × 10^4 cells/mL and 1 × 10^6 cells/mL concentrations, respectively for 24 h. […] The concentration of DMSO in the final culture medium was 1%, which had no effect on the cell viability.
(§2) The cells were exposed to various concentrations (1–100 μM) of the compounds for 24 h at 37 °C. The cells were then stained with MTT solution and incubated for additional 4 h. At the end of this period, supernatants were removed and 100 μL DMSO was added to each well to solubilize the formazan crystals. The absorbance of the solution was determined on the Infinitive M1000 (Tecan, Mannedorf, Switzerland) plate reader at a wavelength of 550 nm with background subtraction at 630 nm.

The next experiment concerns Jurkat. The experiment is described as follows: MTT cell viability assay, Jurkat. As to conditions: Homo sapiens, 24 h exposure. How it is done: as §1, §2
On the technique in general: Tetrazolium dyes change colour on reduction, which living cells bring about.

Experiment [1] has as its system A549 human lung carcinoma. The experiment is described as follows: MTT cell viability assay, A549. As to conditions: 24 h exposure. How it is done: as §1, §2
For another experiment, the system named is MT-2. The experiment can be described thus: MTT cell viability assay, MT-2. As to conditions: Homo sapiens, MT2, 24 h exposure. As for the experimental part: as §1, §2
Another experiment concerns MCF7 human breast cancer. The experiment is described as follows: MTT cell viability assay, MCF7. As to conditions: 24 h exposure. As for the experimental part:
as §1, §2

In general, IC50 refers to the point on the concentration scale where inhibition reaches its midpoint. The low end stands for greater potency in that assay, the high end for weaker potency in that assay. With `Cc1ccc(NC(=O)c2ccc(CN3CCN(C)CC3)cc2)cc1Nc1nccc(-c2cccnc2)n1` [Imatinib, reference compound], the IC50 with HL-60 stood at 11.8 ± 1.08 µM; in the experiment with Jurkat it was 9.69 ± 0.63 µM; in experiment [1], 95.1 ± 8.33 µM; in the experiment on MT-2 it was 13 ± 1.33 µM; with MCF7 human breast cancer, 90.6 ± 5.81 µM.
